In test [1] the target is T1, Rad54 (two-hybrid fusion) (Saccharomyces cerevisiae) (UniProt P32863).
T1 sequence: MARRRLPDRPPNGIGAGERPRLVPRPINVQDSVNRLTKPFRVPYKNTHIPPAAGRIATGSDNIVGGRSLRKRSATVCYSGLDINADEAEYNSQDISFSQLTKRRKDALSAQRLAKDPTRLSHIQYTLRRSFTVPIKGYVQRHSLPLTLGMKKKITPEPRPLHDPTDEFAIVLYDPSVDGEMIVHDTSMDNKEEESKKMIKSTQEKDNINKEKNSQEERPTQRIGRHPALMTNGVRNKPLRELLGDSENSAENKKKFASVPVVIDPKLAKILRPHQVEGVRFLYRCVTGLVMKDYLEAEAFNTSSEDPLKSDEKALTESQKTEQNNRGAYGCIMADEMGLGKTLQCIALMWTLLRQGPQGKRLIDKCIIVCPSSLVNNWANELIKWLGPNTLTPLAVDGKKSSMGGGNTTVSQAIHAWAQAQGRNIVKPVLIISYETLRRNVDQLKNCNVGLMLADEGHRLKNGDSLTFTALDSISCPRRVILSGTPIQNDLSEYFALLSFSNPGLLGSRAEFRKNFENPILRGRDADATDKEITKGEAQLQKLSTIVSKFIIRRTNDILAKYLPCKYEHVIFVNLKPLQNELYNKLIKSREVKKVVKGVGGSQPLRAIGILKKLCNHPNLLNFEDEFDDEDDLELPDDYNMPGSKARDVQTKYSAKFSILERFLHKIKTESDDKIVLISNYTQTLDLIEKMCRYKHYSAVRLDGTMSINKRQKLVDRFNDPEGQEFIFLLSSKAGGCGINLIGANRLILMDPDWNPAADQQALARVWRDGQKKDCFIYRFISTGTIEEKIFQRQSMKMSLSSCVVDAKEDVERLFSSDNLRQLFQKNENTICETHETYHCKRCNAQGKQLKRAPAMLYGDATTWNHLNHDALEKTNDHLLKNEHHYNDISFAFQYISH
Kind of test: two-hybrid; two-hybrid analysis, data not shown.

Protein sequences, listed by entry. Tags and fused reporters are not part of them.
UniProt P15873: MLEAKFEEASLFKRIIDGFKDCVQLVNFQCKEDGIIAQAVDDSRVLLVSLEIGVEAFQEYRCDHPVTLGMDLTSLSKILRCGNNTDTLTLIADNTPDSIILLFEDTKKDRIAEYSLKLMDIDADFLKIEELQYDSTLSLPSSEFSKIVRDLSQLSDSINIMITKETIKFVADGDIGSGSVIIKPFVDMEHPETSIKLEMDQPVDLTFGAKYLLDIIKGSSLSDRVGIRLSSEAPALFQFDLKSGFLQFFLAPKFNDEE

The target in test [2] is T2, GST-Rad54 (wild type Saccharomyces cerevisiae Rad54) (Saccharomyces cerevisiae) (UniProt P32863).
T2 sequence: T1 sequence
In words: pull-down; purified GST-Rad54 (or GST) incubated with PCNA bacterial extract in 25 mM Tris-HCl pH 7.5, 50 mM NaCl, 1 mM DTT, 10% glycerol, 0.05% NP-40, room temperature 1 hr; captured on glutathione sepharose; washed with 100 mM NaCl; Coomassie or immunoblot; also under increased ionic strength (Fig. S1); only the target purified.

Test [3] deals with T3, GST-Rad54-Y494A-F495A (Saccharomyces cerevisiae) (UniProt P32863).
T3 sequence: T1 sequence with Y494A, F495A
The test is described as above.

Where a chain is given by its changes, count along the chain named. These are yes or no findings as the source states them, for the method shown. For part of these data: In cells and extracts the contact can be indirect. Some entries that bind do so weakly or less than the wild type. Sequences can lack the tags named with a protein.

Consider “PCNA (two-hybrid fusion) (from UniProt P15873 1-258)”, for which the binding result in test [1] was “binds”.

For “yeast PCNA in bacterial extract (from UniProt P15873 1-258)”, the binding entry in test [2] and in test [3] was “binds” throughout.

The record behind these values is PMC3864901, “A Conserved Sequence Extending Motif III of the Motor Domain in the Snf2-Family DNA Translocase Rad54 Is Critical for ATPase Activity” (PLoS ONE, 2013).
